Measured values: patent US20160318866A1, “SUBSTITUTED BIPIPERIDINYL DERIVATIVES” (Bayer Pharma Aktiengesellschaft, priority 2013, published 2016)
At least one structure is not confirmed: it was looked up by name or label, or the drawing left a doubt.

Experiments:
[1] = tested on: ZDF rat; test: Measurement of blood flow and blood pressure in rats (ZDF rats); assay type: in vivo; conditions: diabetic ZDF fa/fa animals; doses of 0.1, 0.3 and 1 μg/kg
Description: (§1) Wistar rats (Hsd Cpb:Wu) of a weight of 250-350 g or ZDF rats (ZDF/Crl-Lepr fa/fa) of a weight of 330-520 g were anaesthetized using 2.5% isoflurane in an oxygen/laughing gas mixture (40:60). To determine the blood flow in the carotid artery and the femoral artery, the anaesthetized rat was brought into a supine position, and the left carotid artery and the right femoral artery are then carefully exposed. Blood flow was measured by placing flow probes (Transonic Flowprobe) at the vessels. By introducing a PE50 artery catheter into the left femoral artery, blood pressure and heart rate were determined (Transducer Ref. 5203660: from Braun CH). The substances were administered as a bolus injection or a continuous infusion via a venous catheter in the left femoral vein.
(§2) Following the preparation of the animals, there was a 5 min baseline interval. Infusion of the AR alphα2C receptor antagonist was then started. In the steady state (32 min after the start of the experiment), the femoral flow was determined in relation (% difference) to the initial flow.

[2] = tested on: Wistar rat; test: Measurement of blood flow and blood pressure in rats (Wistar rats); assay type: in vivo; conditions: up to a dose of 1 μg/kg/min
Description: as §1, §2

For `CC1CCCN(C2CCN(C(=O)c3ccc(C(C)(C)O)cc3)CC2)C1` (single isomer, unassigned) [Example 8, [4-(1-Hydroxy-1-methylethyl)phenyl)](3-methyl-1,4′-bipiperidin-1′-yl)methanone, (−)-enantiomer], the femoral flow [1] was “dose-dependent increase in femoral flow” and the femoral flow [2] was “no increase in femoral flow”.
